Where a chain is given by its changes, count along the chain named. Results are given in words; binding and its absence hold for the method and conditions named. In cells and extracts the contact can be indirect. Some results given as binding are weak or reduced against the parent protein; the word gives no strength.
B1: AC2884 (EGFR.36/CD3.23 paTCE) (bispecific antibody)
scFv 1: DIQMTQSPSSLSASVGDRVTITCQASQDISNYLNWYQQKPGKAPKLLIYDASNLETGVPSRFSGSGSGTDFTFTISSLQPEDIATYYCQHFDHLPLAFGQGTKVEIKGATPPETGAETESPGETTGGSAESEPPGEGQVQLQQWGAGLLKPSETLSLTCAVYGGSVSSGDYYWTWIRQPPGKGLEWIGHIYYSGNTNYNPSLKSRVTISVDTSKNQFSLKLSSVTAADTAVYYCARDRVTGAFDIWGQGTLVTVSS
scFv 2: ELVVTQEPSLTVSPGGTVTLTCRSSNGAVTSSNYANWVQQKPGQAPRGLIGGTNKRAPGTPARFSGSLLGGKAALTLSGVQPEDEAVYYCALWYPNLWVFGGGTKLTVLGATPPETGAETESPGETTGGSAESEPPGEGEVQLLESGGGIVQPGGSLKLSCAASGFTFNTYAMNWVRQAPGKGLEWVARIRSKYNNYATYYADSVKDRFTISRDDSKNTVYLQMNNLKTEDTAVYYCVRHENFGNSYVSWFAHWGQGTLVTVSS
B2: AC2896 (EGFR.48/CD3.23 paTCE) (bispecific antibody)
scFv 1: B1 scFv 1 with F73L, I83F
scFv 2: B1 scFv 2

Biological target: human EGFR (human) (UniProt P00533)
Experiment: human-EGFR bead pull-down, pooled library, MS

| Binder | binding |
| --- | --- |
| B1 | binds |
| B2 | binds |

From patent publication US20240400696A1
